PubChem BioAssay AID1259308, NCATS – 2017

- Aim: 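Candidate targets for better recombinant protein yield in mammalian cells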 (primary screen)
- Cells: human HEK293 embryonic kidney cells stably expressing firefly luciferase (HEK-CMV-Luc2-Hygro)
- Knock-down reagent: single siRNA against human genes, 0.8 pmol siRNA per well
- Duration: 72 h
- Detection: 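Luciferase light (ONE-Glo) measured on one replicate plate set and viability (CellTiter-Glo) on the other, scaled to a negative control siRNA, with robust z-scores and luciferase per cell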
- Scale: total luciferase, z-score and total luciferase, % of control: higher = more reporter protein produced; luciferase per cell, z-score: higher = more reporter output per viable cell; viable cells, % of control: higher = more viable cells
- Call rule: 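Active when the median/MAD z-score for overall luciferase is greater than 3; a gene was taken forward for validation with new siRNAs if at least two of its three siRNAs passed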
- Calls: active = raised luciferase; inactive = no rise
Shown is an unselected part of about 59,000 deposited reagents. About 1,510 of them (2.6%) count as active. 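Calls use total luciferase alone and ignore viability, so some active siRNAs may act by altering cell number.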 Reagents against one gene are numbered here. No sequences are given here.

gene knocked down	reagent	total luciferase, z-score	total luciferase, % of control	luciferase per cell, z-score	viable cells, % of control	Outcome
TREML1	1	-0.0996	79.9	1.22	64.7	inactive
TREML1	2	-2.19	38.4	-1.65	66.3	inactive
TREML1	3	1.46	111	0.73	102	inactive
PTGR3	1	0.109	84.1	-0.344	103	inactive
PTGR3	2	2.24	127	1.66	91.2	inactive
PTGR3	3	-0.356	74.8	-0.741	102	inactive
TSC22D4	1	-0.0776	80.3	-0.193	94.5	inactive
TSC22D4	2	-0.204	77.8	0.461	77	inactive
TSC22D4	3	-0.045	81	0.743	74.4	inactive
SCGB3A2	1	-0.536	71.2	-1.14	108	inactive
SCGB3A2	2	-0.299	75.9	-0.453	95.6	inactive
SCGB3A2	3	1.66	115	0.353	117	inactive
ABR	1	-0.672	68.5	-1.04	101	inactive
ABR	2	0.421	90.3	0.0103	101	inactive
ABR	3	0.948	101	0.932	88.1	inactive

In a second layout: entries from further up
PTGR3 #3: total luciferase, z-score = -0.356; total luciferase, % of control = 74.8; luciferase per cell, z-score = -0.741; viable cells, % of control = 102; Outcome = inactive
TSC22D4 #1: total luciferase, z-score = -0.0776; total luciferase, % of control = 80.3; luciferase per cell, z-score = -0.193; viable cells, % of control = 94.5; Outcome = inactive
TSC22D4 #2: total luciferase, z-score = -0.204; total luciferase, % of control = 77.8; luciferase per cell, z-score = 0.461; viable cells, % of control = 77; Outcome = inactive
TSC22D4 #3: total luciferase, z-score = -0.045; total luciferase, % of control = 81; luciferase per cell, z-score = 0.743; viable cells, % of control = 74.4; Outcome = inactive

Additional results follow.
gene knocked down	reagent	total luciferase, z-score	total luciferase, % of control	luciferase per cell, z-score	viable cells, % of control	Outcome
ST6GALNAC3	1	1.56	113	1.78	79	inactive
ST6GALNAC3	2	-0.419	73.6	-0.389	91.1	inactive
ST6GALNAC3	3	-0.138	79.1	-0.0959	90.7	inactive
BAGE4	1	1.32	108	0.717	100	inactive
BAGE4	2	-0.493	72.1	-0.919	103	inactive
BAGE4	3	1.18	105	1.56	78.1	inactive
METTL18	1	-0.93	63.4	-0.277	76.2	inactive
METTL18	2	0.838	98.6	0.757	90.2	inactive
METTL18	3	3.5	151	2.54	86.7	active
